Source: PubChem BioAssay AID1259415 (National Center for Advancing Translational Sciences (NCATS), 2018)
About 18,000 (4.4%) of roughly 410,000 compounds were called active. Inconclusive results, whose numbers are uncertain, are shown with a selection of clear calls. Cut-off read from the data, not from the text of the source: active = activity change below about -60%; inconclusive = no clear call, values can overlap the other calls; inactive = above about -39%.

Assay: qHTS Assay for inhibitors of the human cytomegalovirus (HCMV)
Settings: HFF cells, HCMV-luciferase reporter, 72 h; at 57.5 µM; stronger effect = lower value
Procedure, shortened: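 Two-dose cell screen: HFF monolayers treated with compounds and infected with luciferase-expressing HCMV at 1 PFU/cell, 72 h at 37C, then lysed for luciferase measurement.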
% is set by controls: 0 for no effect and ±100 for the full control effect.

Compound	activity change, negative = inhibition
COc1cccc(NC(=O)C2CCN(S(=O)(=O)c3ccc4[nH]c5c(c4c3)CCCCC5)CC2)c1	inconclusive: -53.1%
CCOc1ccc(N(C(=O)/C=C/C(=O)Nc2cc(C)on2)C(C(=O)NC2CCCC2)c2ccccc2C)cc1 (centres undefined)	active: -93.2%
Cc1cccc(NCc2nnc(-c3ccccc3)o2)c1C	inconclusive: -42%
COc1ccc(-c2cc(C(=O)NCCc3ccc(OC)c(OC)c3)c3c(-c4ccc(F)cc4)[nH]nc3n2)cc1	inactive: -10.9%
C=CCNC(=O)Nc1ccc(Br)cc1Cl	inconclusive: -55.6%
Cc1cc2nc(CCN(C(=S)NCC3CCCO3)C3CCCC3)[nH]c2cc1C (centres undefined)	active: -62.9%
c1ccc(-c2cc3c(NCC4COc5ccccc5O4)ncnc3s2)cc1 (centres undefined)	inconclusive: -40.6%
O=C(O)c1cccc(S(=O)(=O)N2CCC(n3nnc4cc(C(F)(F)F)ccc43)CC2)c1	inactive: 19%
CC(=O)Nc1cccc(NC(=O)CSc2ccc(-c3sc(-c4ccccc4)nc3C)nn2)c1	inactive: -30.9%
CCCCc1ccc(N2C(=O)[C@@H]3C(CC(N)=O)NC4(C(=O)Nc5ccc(F)cc54)[C@@H]3C2=O)cc1 (some centres undefined)	inactive: 13.3%
O=C(CCCOc1ccc(Cl)cc1Cl)N/N=C/c1ccco1	inconclusive: -43.6%
CCOC(=O)c1sc(NC(=O)CSc2ccccn2)c(C#N)c1C	inconclusive: -47.5%
CCC(C)N(CC(=O)NCc1ccc(OC)cc1)C(=O)c1csnn1 (centres undefined)	inconclusive: -40.2%
CC(=O)Nc1ccc(S(=O)(=O)N2CCN(c3cc(C(F)(F)F)ccn3)CC2)cc1	inconclusive: -41.2%
COc1ccc(N(CC(=O)Nc2ccccc2OC)S(=O)(=O)c2ccc(OC)c(OC)c2)cc1	inactive: -13%
Fc1cc(Br)ccc1Nc1nc2ccccc2n2nnnc12	active: -72.9%
N#C/C(=C\c1c(Cl)cccc1Cl)c1nc2ccccc2[nH]1	active: -69.6%
CC(=O)c1ccc(N2CCN(c3ccc(C(N)=O)cc3[N+](=O)[O-])CC2)cc1	inconclusive: -46.9%
COc1ccc([C@@H]2C(C(=O)N3CCCC3)CC(=O)N2P(=O)(OC)OC)cc1 (some centres undefined)	inconclusive: -45.7%
Cc1ccc(NC(=O)c2ccc3nsnc3c2)c(Cl)c1	inconclusive: 0%
COc1ccc(OC)c(NC(=O)CC(=O)Nc2ccc3nc4n(c(=O)c3c2)CCCCC4)c1	inactive: -18.1%
CCC(=O)c1ccc(OCC(=O)N2CCCC2)c(OC)c1	inconclusive: -58.5%

Compound	activity change, negative = inhibition
Cc1ccc(CN2CCN(Cc3ccccc3)CC2)cc1	inactive: 22.2%
Cc1cccc(NC(=O)N2CCC(CN3CCCCCC3)CC2)c1C	inconclusive: -57.8%
CN1OC[C@@H]2CN3C(=O)N(c4cccc5ccccc45)c4ccccc4[C@@H]3C[C@@H]21	active: -102%
O=C(Cc1ccc(Br)cc1)NC1CCCCC1	inactive: 81.7%
COc1cc(OC)cc(C(=O)NNC(=O)CN2C(=O)NC3(CCCC3)C2=O)c1	inconclusive: 0%
CC(C)[C@H](NC(=O)OCc1ccccc1)C(=O)OCC(=O)N1CCCCC1	inactive: 101%
COC(=O)CN(c1cc(Cl)ccc1OC)S(=O)(=O)c1ccc(OC)c(OC)c1	inconclusive: -45.3%
COC(=O)C1=C(C)Nc2c(c(=O)n(C)c(=O)n2C)C1c1ccncc1 (centres undefined)	inactive: 2.56%
Cc1ccsc1CN(C)CC(=O)Nc1ccc([N+](=O)[O-])cc1Cl	inconclusive: -46.6%
Clc1ccc(CNCC2CCCO2)c(Cl)c1 (centres undefined)	inconclusive: -46.3%
CCC1OC2(C)OC(=N)C1(C#N)C(C#N)(C#N)C2c1ccccc1 (centres undefined)	inconclusive: -46%
CS(=O)(=O)/C(C#N)=C/c1cccn1S(=O)(=O)c1ccccc1	inconclusive: -57.2%
Cc1cccc(NC(=S)N2CCN(S(=O)(=O)c3ccc(F)cc3)CC2)c1	inconclusive: -43.8%
O=C(CN1CCCc2ccccc21)N/N=C/c1ccccc1O	inconclusive: -44.3%
Nc1nc(NC(=O)c2cccs2)nn1-c1ccccc1	inactive: 70.7%
CN(Cc1cccc2ccccc12)C(=O)c1cc(COc2c(F)cccc2F)on1	inconclusive: -52.8%
CSc1cccc(NS(=O)(=O)c2ccc3c(c2)oc(=O)n3C)c1	inconclusive: -42.9%
COc1cccc(CN(CC(=O)NC2CCCCC2)C(=O)c2csnn2)c1	inconclusive: -42.8%
CS(=O)(=O)c1ccc(C(=O)N2CCN(S(=O)(=O)c3ccc(C4CCCCC4)cc3)CC2)cc1	inconclusive: -58.2%
Cc1cc(C)cc(SCc2noc(C(=O)NCC3CC3)c2C(=O)NCC2CC2)c1	inconclusive: -51.3%
CCOC(=O)c1c(N2CCN(c3ccccc3)CC2)cc(C)nc1C	inconclusive: -42.5%
CC1CCN(c2ccc(S(=O)(=O)NC3=NCCCCC3)cc2[N+](=O)[O-])CC1	inconclusive: -54.7%
